Experimental data from patent publication US7056908B2, “Pharmaceutical compositions and methods for preventing skin tumor formation and causing regression of existing tumors” (priority 1991, dated 2006).

Legend:
[1] = tested on: grafted 308 mouse papilloma cells; assay: Tumor formation from grafted 308 papilloma cells on nude mice, topical treatment; format: in vivo; details: Example 4; topical twice per week in acetone from two weeks after grafting
[2] = tested on: grafted SP-1 mouse papilloma cells; assay: Tumor formation from grafted SP-1 papilloma cells on nude mice, topical treatment; format: in vivo
primary keratinocytes = format: cell-based, mouse
Description: EGF binding was assessed in 6-well tissue culture dishes plated at a cell density of 2.5×10^6 cells/well (Strickland, J. E. et al, “Interaction of epidermal growth factor with basal and differentiating epidermal cells of mice resistant and sensitive to carcinogenesis,” Carcinogenesis, 5: 735–740, 1984). […] A second set of cultures received, in addition, 1 μg/ml unlabelled EGF to assess non-specific binding of radioactive ligand. Following the incubation period, cultures were washed 4 times with ice-cold binding buffer, harvested in 1.5 ml lysis buffer (0.1 M tris (pH 7.4), 0.5% SDS, 1 mM EDTA), and radioactivity determined by scintillation counting.
Exposure of a variety of cultured cell types to TPA results in inhibition of EGF binding which is attributed to PKC-mediated phosphorylation of the EGF receptor (Diamond, L., “Tumor promoters and cell transformation,” In: D. Grunberger and S. P. Goff. (eds.), Mechanisms of Cellular Transformation by Carcinogenic Agents, pp. 73–133, New York: Pergamon Press. 1987).
Each point is the mean of trilpicate dishes±standard error of the mean.

Compound: CN[C@@H]1C[C@H]2O[C@@](C)([C@@H]1OC)n1c3ccccc3c3c4c(c5c6ccccc6n2c5c31)C(=O)NC4 [staurosporine]
- optimum dose for inhibition of tumor formation [1]: 0.025 nmol
- inhibition of tumor size ([2]; Example 1, 2.5 nmole in 25 μl acetone once a week from two weeks after grafting): clear as early as four weeks after grafting
- optimum dose for inhibition of tumor formation ([2]; Example 2, topical twice per week from two weeks after grafting, lowest dose tested): 0.125 nmol
- optimum dose for inhibition of tumor formation ([2]; Example 3, topical twice per week in acetone from two weeks after grafting): 0.025 nmol
- most inhibitory dose ([2]; Example 5, single topical treatment two weeks after grafting): 0.125 nmol
- inhibition of 125I-EGF binding (primary keratinocytes): lack of response
